Test results reported in paper PMC11775015, “Parishin B blocking TRIB3-AKT1 interaction inhibits breast cancer lung metastasis” (Frontiers in Pharmacology, 2025).
Results are given in words; binding and its absence hold for the method and conditions named. Binding seen in cells or lysates may run through a third protein. Some entries that bind do so weakly or less than the wild type.

Sequences of proteins named here, by UniProt entry; tags and fusion partners are left off.
UniProt Q96RU7: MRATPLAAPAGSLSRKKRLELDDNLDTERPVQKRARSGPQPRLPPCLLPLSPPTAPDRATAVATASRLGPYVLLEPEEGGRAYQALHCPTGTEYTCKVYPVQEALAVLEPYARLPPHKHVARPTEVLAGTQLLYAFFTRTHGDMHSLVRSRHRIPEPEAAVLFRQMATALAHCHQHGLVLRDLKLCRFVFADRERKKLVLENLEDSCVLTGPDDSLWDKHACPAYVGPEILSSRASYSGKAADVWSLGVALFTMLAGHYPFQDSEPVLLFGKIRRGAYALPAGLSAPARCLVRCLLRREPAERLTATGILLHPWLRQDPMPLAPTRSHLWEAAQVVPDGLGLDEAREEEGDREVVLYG
UniProt P31749: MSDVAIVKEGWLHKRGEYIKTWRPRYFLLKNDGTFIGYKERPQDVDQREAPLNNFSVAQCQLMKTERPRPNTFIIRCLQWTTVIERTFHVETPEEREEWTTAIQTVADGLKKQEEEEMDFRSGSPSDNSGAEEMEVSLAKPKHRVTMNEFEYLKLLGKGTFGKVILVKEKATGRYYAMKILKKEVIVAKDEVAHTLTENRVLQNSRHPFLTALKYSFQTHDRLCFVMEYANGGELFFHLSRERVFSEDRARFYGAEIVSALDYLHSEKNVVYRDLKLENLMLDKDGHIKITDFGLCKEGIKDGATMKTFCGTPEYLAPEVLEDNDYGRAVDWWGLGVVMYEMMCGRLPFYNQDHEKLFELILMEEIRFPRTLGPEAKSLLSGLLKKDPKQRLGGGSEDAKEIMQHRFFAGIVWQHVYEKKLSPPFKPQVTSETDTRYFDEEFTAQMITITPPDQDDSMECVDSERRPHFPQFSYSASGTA

How the values were obtained:
[1] = molecular target: Tribbles homolog 3 (TRIB3) (human (endogenous in MDA-MB-231)) (UniProt Q96RU7); assay: co-IP; MDA-MB-231 cells treated with DMSO for 24 h, lysed in RIPA buffer with PMSF; immunoprecipitation with anti-TRIB3 or anti-AKT1 antibody, Protein A/G agarose beads, Western blot
[2] = molecular target: Tribbles homolog 3 (TRIB3) (human (endogenous in MDA-MB-231)) (UniProt Q96RU7); assay: condition: only cells treated with 20 μM PB for 24 h; co-IP; MDA-MB-231 cells treated with 20 μM Parishin B (PB) for 24 h, lysed in RIPA buffer with PMSF; immunoprecipitation with anti-TRIB3 or anti-AKT1 antibody, Protein A/G agarose beads, Western blot

In the case of AKT1 (from UniProt P31749 1-480), the binding [1] is reported as “binds” and the binding [2] is reported as “no binding”.
